Laboratory results from the supplement of paper PMC8426693.
The other results are listed elsewhere or left out.

What was measured:
Test in all cases: NMR binding call after quantification (hit when 2 of 3 NMR criteria are met) (binary (1 = binding, 0 = not binding)); higher = binding
Conditions in all cases: RNA concentration 10 µM; fragment concentration 200 µM; 293 K
SARS-CoV-2 3'-UTR RNA = system: SARS-CoV-2 3'-UTR RNA
SARS-CoV-2 3_SL1 RNA = system: SARS-CoV-2 3_SL1 RNA
SARS-CoV-2 3_SL2 RNA = system: SARS-CoV-2 3_SL2 RNA
SARS-CoV-2 3_SL3base RNA = system: SARS-CoV-2 3_SL3base RNA
SARS-CoV-2 3_s2m RNA = system: SARS-CoV-2 3_s2m RNA
SARS-CoV-2 5'-UTR RNA = system: SARS-CoV-2 5'-UTR RNA
SARS-CoV-2 5_SL1 RNA = system: SARS-CoV-2 5_SL1 RNA
SARS-CoV-2 5_SL1234 RNA = system: SARS-CoV-2 5_SL1234 RNA
SARS-CoV-2 5_SL2+3 RNA = system: SARS-CoV-2 5_SL2+3 RNA
SARS-CoV-2 5_SL4 RNA = system: SARS-CoV-2 5_SL4 RNA
SARS-CoV-2 5_SL5 RNA = system: SARS-CoV-2 5_SL5 RNA
SARS-CoV-2 5_SL5a RNA = system: SARS-CoV-2 5_SL5a RNA
SARS-CoV-2 5_SL5b+c RNA = system: SARS-CoV-2 5_SL5b+c RNA
SARS-CoV-2 5_SL5stem RNA = system: SARS-CoV-2 5_SL5stem RNA
SARS-CoV-2 5_SL6 RNA = system: SARS-CoV-2 5_SL6 RNA
SARS-CoV-2 3_SL1+2 RNA = system: SARS-CoV-2 3_SL1+2 RNA

## O=C(CC1CCCCC1)Nc1cccnc1
SARS-CoV-2 3'-UTR RNA
  NMR binding call: 0
SARS-CoV-2 3_SL1 RNA
  NMR binding call: 0
SARS-CoV-2 3_SL2 RNA
  NMR binding call: 0
SARS-CoV-2 3_SL3base RNA
  NMR binding call: 0
SARS-CoV-2 3_s2m RNA
  NMR binding call: 0
SARS-CoV-2 5'-UTR RNA
  NMR binding call: 0
SARS-CoV-2 5_SL1 RNA
  NMR binding call: 0
SARS-CoV-2 5_SL1234 RNA
  NMR binding call: 0
SARS-CoV-2 5_SL2+3 RNA
  NMR binding call: 0
SARS-CoV-2 5_SL4 RNA
  NMR binding call: 0
SARS-CoV-2 5_SL5 RNA
  NMR binding call: 0
SARS-CoV-2 5_SL5a RNA
  NMR binding call: 0
SARS-CoV-2 5_SL5b+c RNA
  NMR binding call: 0
SARS-CoV-2 5_SL5stem RNA
  NMR binding call: 0
SARS-CoV-2 5_SL6 RNA
  NMR binding call: 0

## Cl.NC1CCN(S(=O)(=O)c2ccccc2)C1 (stereo not drawn)
SARS-CoV-2 3'-UTR RNA
  NMR binding call: 0
SARS-CoV-2 3_SL2 RNA
  NMR binding call: 0
SARS-CoV-2 3_SL3base RNA
  NMR binding call: 0
SARS-CoV-2 3_s2m RNA
  NMR binding call: 0
SARS-CoV-2 5'-UTR RNA
  NMR binding call: 0
SARS-CoV-2 5_SL1 RNA
  NMR binding call: 0
SARS-CoV-2 5_SL1234 RNA
  NMR binding call: 0
SARS-CoV-2 5_SL2+3 RNA
  NMR binding call: 0
SARS-CoV-2 5_SL4 RNA
  NMR binding call: 0
SARS-CoV-2 5_SL5 RNA
  NMR binding call: 0
SARS-CoV-2 5_SL5a RNA
  NMR binding call: 0
SARS-CoV-2 5_SL5b+c RNA
  NMR binding call: 0
SARS-CoV-2 5_SL5stem RNA
  NMR binding call: 0
SARS-CoV-2 5_SL6 RNA
  NMR binding call: 0

## CCCc1cc(=O)oc2cc(OC(C)=O)ccc12
SARS-CoV-2 3_SL1 RNA
  NMR binding call: 0
SARS-CoV-2 3_SL1+2 RNA
  NMR binding call: 0
SARS-CoV-2 3_SL3base RNA
  NMR binding call: 0
SARS-CoV-2 3_s2m RNA
  NMR binding call: 0
SARS-CoV-2 5'-UTR RNA
  NMR binding call: 0
SARS-CoV-2 5_SL1 RNA
  NMR binding call: 0
SARS-CoV-2 5_SL1234 RNA
  NMR binding call: 0
SARS-CoV-2 5_SL2+3 RNA
  NMR binding call: 0
SARS-CoV-2 5_SL4 RNA
  NMR binding call: 0
SARS-CoV-2 5_SL5 RNA
  NMR binding call: 0
SARS-CoV-2 5_SL5a RNA
  NMR binding call: 0
SARS-CoV-2 5_SL5b+c RNA
  NMR binding call: 0
SARS-CoV-2 5_SL5stem RNA
  NMR binding call: 0
SARS-CoV-2 5_SL6 RNA
  NMR binding call: 0

## COC(=O)c1ccccc1NC(=O)N1CCCC1
SARS-CoV-2 3'-UTR RNA
  NMR binding call: 0
SARS-CoV-2 3_SL1 RNA
  NMR binding call: 0
SARS-CoV-2 3_SL3base RNA
  NMR binding call: 0
SARS-CoV-2 5'-UTR RNA
  NMR binding call: 0
SARS-CoV-2 5_SL1 RNA
  NMR binding call: 0
SARS-CoV-2 5_SL1234 RNA
  NMR binding call: 0
SARS-CoV-2 5_SL4 RNA
  NMR binding call: 0
SARS-CoV-2 5_SL5 RNA
  NMR binding call: 0
SARS-CoV-2 5_SL5stem RNA
  NMR binding call: 0
SARS-CoV-2 5_SL6 RNA
  NMR binding call: 0

## O=C(NO)c1ccc2ccccc2n1
SARS-CoV-2 3_SL1 RNA
  NMR binding call: 0
SARS-CoV-2 3_SL1+2 RNA
  NMR binding call: 0
SARS-CoV-2 3_SL2 RNA
  NMR binding call: 0
SARS-CoV-2 3_SL3base RNA
  NMR binding call: 0
SARS-CoV-2 3_s2m RNA
  NMR binding call: 0
SARS-CoV-2 5'-UTR RNA
  NMR binding call: 1
SARS-CoV-2 5_SL1 RNA
  NMR binding call: 0
SARS-CoV-2 5_SL1234 RNA
  NMR binding call: 0
SARS-CoV-2 5_SL2+3 RNA
  NMR binding call: 0
SARS-CoV-2 5_SL4 RNA
  NMR binding call: 0
SARS-CoV-2 5_SL5a RNA
  NMR binding call: 0
SARS-CoV-2 5_SL5b+c RNA
  NMR binding call: 0
SARS-CoV-2 5_SL5stem RNA
  NMR binding call: 1

## CC(C)Nc1nc2ccccc2[nH]1
SARS-CoV-2 3_SL1 RNA
  NMR binding call: 0
SARS-CoV-2 3_SL1+2 RNA
  NMR binding call: 0
SARS-CoV-2 3_SL2 RNA
  NMR binding call: 0
SARS-CoV-2 3_SL3base RNA
  NMR binding call: 0
SARS-CoV-2 3_s2m RNA
  NMR binding call: 0
SARS-CoV-2 5'-UTR RNA
  NMR binding call: 0
SARS-CoV-2 5_SL1 RNA
  NMR binding call: 0
SARS-CoV-2 5_SL1234 RNA
  NMR binding call: 0
SARS-CoV-2 5_SL2+3 RNA
  NMR binding call: 0
SARS-CoV-2 5_SL4 RNA
  NMR binding call: 0
SARS-CoV-2 5_SL5 RNA
  NMR binding call: 0
SARS-CoV-2 5_SL5a RNA
  NMR binding call: 0
SARS-CoV-2 5_SL5b+c RNA
  NMR binding call: 0
SARS-CoV-2 5_SL5stem RNA
  NMR binding call: 0
SARS-CoV-2 5_SL6 RNA
  NMR binding call: 0

## CC(=O)Nc1ccncc1C
SARS-CoV-2 3'-UTR RNA
  NMR binding call: 1
SARS-CoV-2 3_SL1 RNA
  NMR binding call: 0
SARS-CoV-2 3_SL2 RNA
  NMR binding call: 0
SARS-CoV-2 3_SL3base RNA
  NMR binding call: 0
SARS-CoV-2 3_s2m RNA
  NMR binding call: 0
SARS-CoV-2 5'-UTR RNA
  NMR binding call: 0
SARS-CoV-2 5_SL4 RNA
  NMR binding call: 0

## CCN(CC)S(=O)(=O)c1ccc(C)cc1
SARS-CoV-2 3_SL1 RNA
  NMR binding call: 0
SARS-CoV-2 3_SL1+2 RNA
  NMR binding call: 0
SARS-CoV-2 3_SL2 RNA
  NMR binding call: 0
SARS-CoV-2 3_SL3base RNA
  NMR binding call: 0
SARS-CoV-2 3_s2m RNA
  NMR binding call: 0
SARS-CoV-2 5'-UTR RNA
  NMR binding call: 0
SARS-CoV-2 5_SL1 RNA
  NMR binding call: 0
SARS-CoV-2 5_SL1234 RNA
  NMR binding call: 0
SARS-CoV-2 5_SL2+3 RNA
  NMR binding call: 0
SARS-CoV-2 5_SL4 RNA
  NMR binding call: 0
SARS-CoV-2 5_SL5 RNA
  NMR binding call: 0
SARS-CoV-2 5_SL5a RNA
  NMR binding call: 0
SARS-CoV-2 5_SL5b+c RNA
  NMR binding call: 0
SARS-CoV-2 5_SL5stem RNA
  NMR binding call: 0
SARS-CoV-2 5_SL6 RNA
  NMR binding call: 0

## CN(C)c1ccncc1
SARS-CoV-2 3_SL1 RNA
  NMR binding call: 0
SARS-CoV-2 3_SL1+2 RNA
  NMR binding call: 0
SARS-CoV-2 3_SL2 RNA
  NMR binding call: 0
SARS-CoV-2 3_SL3base RNA
  NMR binding call: 0
SARS-CoV-2 3_s2m RNA
  NMR binding call: 0
SARS-CoV-2 5'-UTR RNA
  NMR binding call: 0
SARS-CoV-2 5_SL1 RNA
  NMR binding call: 0
SARS-CoV-2 5_SL1234 RNA
  NMR binding call: 0
SARS-CoV-2 5_SL2+3 RNA
  NMR binding call: 0
SARS-CoV-2 5_SL4 RNA
  NMR binding call: 0
SARS-CoV-2 5_SL5 RNA
  NMR binding call: 0
SARS-CoV-2 5_SL5a RNA
  NMR binding call: 0
SARS-CoV-2 5_SL5b+c RNA
  NMR binding call: 0
SARS-CoV-2 5_SL5stem RNA
  NMR binding call: 0
SARS-CoV-2 5_SL6 RNA
  NMR binding call: 0

## COC(=O)C1CC(O)CN1C(=O)c1ccco1 (stereo not drawn)
SARS-CoV-2 3'-UTR RNA
  NMR binding call: 0
SARS-CoV-2 3_SL1+2 RNA
  NMR binding call: 0
SARS-CoV-2 3_SL2 RNA
  NMR binding call: 0
SARS-CoV-2 3_SL3base RNA
  NMR binding call: 0
SARS-CoV-2 3_s2m RNA
  NMR binding call: 0
SARS-CoV-2 5'-UTR RNA
  NMR binding call: 0
SARS-CoV-2 5_SL1 RNA
  NMR binding call: 0
SARS-CoV-2 5_SL1234 RNA
  NMR binding call: 0
SARS-CoV-2 5_SL2+3 RNA
  NMR binding call: 0
SARS-CoV-2 5_SL4 RNA
  NMR binding call: 0
SARS-CoV-2 5_SL5 RNA
  NMR binding call: 0
SARS-CoV-2 5_SL5a RNA
  NMR binding call: 0
SARS-CoV-2 5_SL5b+c RNA
  NMR binding call: 0
SARS-CoV-2 5_SL5stem RNA
  NMR binding call: 0
SARS-CoV-2 5_SL6 RNA
  NMR binding call: 0
